Experimental data taken from patent US5100909A, “Acetylenic imidazoles having central nervous system activity” (The Upjohn Company, priority 1991, dated 1992).
Read-outs that look alike come from different tables or passages of the source. For at least one compound, name, drawing or mass did not settle the structure.

Legend:
[1] = biological target: CNS cholinergic receptor; assay: Cholinergic receptor binding assay, tritiated oxotremorine M ligand; settings: read-out: CNS Cholinergic Receptor Binding Assays Ki (nM) Oxotremorine
[2] = biological target: CNS cholinergic receptor; settings: tritiated quinuclidine benzylate; read-out: CNS Cholinergic Receptor Binding Assays Ki (nM) QNB

Structure (SMILES) | Ki [1] [nM] | Ki [2] [nM]
C(#CCn1ccnc1)CN1CCCC1 [Compound 28, 1-[4-(Pyrrolidinyl)-2-butynyl]-1H-imidazole] | 1900 | 
Cc1nccn1CC#CCN1CCCC1 [Compound 30, 2-Methyl-1-[4-(pyrrolidinyl)-2-butynyl]-1H-imidazole] | 620 | 7700
